Data: the supplement of paper PMC10849652
The other results are listed elsewhere or left out.

Protein sequences, listed by entry. Tags and fused reporters are not part of them. Lines headed by an entry give the natural chain unless they say otherwise; changes in a name come on top.
UniProt Q92797: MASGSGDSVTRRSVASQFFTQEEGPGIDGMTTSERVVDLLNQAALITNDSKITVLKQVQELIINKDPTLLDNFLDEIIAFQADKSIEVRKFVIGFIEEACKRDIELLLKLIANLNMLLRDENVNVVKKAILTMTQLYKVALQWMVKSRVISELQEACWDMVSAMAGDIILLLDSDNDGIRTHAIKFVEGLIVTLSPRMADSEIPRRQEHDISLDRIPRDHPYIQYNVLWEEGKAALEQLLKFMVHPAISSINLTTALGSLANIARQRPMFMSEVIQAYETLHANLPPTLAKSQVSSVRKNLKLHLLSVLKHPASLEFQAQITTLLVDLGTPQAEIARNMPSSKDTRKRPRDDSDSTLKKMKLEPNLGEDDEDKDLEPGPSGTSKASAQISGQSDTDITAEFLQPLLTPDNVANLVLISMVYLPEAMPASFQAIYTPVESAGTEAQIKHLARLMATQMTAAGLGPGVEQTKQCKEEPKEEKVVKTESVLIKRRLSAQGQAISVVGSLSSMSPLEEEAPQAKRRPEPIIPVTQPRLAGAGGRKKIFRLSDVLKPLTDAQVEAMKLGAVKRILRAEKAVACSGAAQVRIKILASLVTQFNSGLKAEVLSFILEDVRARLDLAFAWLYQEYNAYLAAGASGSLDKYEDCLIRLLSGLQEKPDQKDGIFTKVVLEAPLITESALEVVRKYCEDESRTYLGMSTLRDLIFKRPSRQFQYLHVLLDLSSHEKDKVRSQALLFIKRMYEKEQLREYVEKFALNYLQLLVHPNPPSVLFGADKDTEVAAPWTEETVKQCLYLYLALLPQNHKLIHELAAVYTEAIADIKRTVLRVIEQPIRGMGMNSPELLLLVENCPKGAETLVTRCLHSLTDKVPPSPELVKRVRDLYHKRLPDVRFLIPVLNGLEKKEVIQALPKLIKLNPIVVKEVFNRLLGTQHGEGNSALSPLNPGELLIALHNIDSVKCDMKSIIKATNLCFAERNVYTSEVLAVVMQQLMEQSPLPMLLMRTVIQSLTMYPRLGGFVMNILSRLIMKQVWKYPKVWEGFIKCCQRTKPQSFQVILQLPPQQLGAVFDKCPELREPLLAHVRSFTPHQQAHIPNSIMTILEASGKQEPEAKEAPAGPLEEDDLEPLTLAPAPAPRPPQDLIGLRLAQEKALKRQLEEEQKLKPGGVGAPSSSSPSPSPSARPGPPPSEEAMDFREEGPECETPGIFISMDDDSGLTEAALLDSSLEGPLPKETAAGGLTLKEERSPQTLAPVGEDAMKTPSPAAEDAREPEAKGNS
UniProt Q9Y5B9, whole entry, looked up: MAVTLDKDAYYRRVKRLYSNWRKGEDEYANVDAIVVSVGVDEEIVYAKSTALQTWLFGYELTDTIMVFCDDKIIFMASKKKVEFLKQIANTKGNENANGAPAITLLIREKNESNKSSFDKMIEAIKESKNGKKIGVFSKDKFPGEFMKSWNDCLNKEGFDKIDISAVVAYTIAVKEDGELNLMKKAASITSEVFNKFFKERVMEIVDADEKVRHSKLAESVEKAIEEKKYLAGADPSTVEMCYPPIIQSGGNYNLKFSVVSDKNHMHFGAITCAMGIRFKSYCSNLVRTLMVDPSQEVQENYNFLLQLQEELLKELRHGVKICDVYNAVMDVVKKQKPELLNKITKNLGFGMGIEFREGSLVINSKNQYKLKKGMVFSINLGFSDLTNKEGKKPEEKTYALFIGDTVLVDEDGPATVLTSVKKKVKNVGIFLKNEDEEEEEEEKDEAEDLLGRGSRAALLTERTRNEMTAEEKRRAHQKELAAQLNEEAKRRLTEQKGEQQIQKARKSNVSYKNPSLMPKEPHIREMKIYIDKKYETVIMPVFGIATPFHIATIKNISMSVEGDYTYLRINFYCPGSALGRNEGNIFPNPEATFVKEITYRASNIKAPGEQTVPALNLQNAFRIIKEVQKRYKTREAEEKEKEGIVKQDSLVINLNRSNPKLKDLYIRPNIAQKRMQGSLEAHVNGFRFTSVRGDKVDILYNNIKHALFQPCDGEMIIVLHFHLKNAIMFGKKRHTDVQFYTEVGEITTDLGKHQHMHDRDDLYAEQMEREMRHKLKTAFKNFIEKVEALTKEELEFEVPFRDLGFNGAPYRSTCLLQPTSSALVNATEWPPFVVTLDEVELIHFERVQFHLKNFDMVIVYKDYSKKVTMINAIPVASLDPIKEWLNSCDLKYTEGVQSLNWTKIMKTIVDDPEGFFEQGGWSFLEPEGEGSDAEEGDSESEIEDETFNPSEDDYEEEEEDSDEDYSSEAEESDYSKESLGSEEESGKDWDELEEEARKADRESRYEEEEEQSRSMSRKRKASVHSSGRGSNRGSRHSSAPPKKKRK
UniProt P51687: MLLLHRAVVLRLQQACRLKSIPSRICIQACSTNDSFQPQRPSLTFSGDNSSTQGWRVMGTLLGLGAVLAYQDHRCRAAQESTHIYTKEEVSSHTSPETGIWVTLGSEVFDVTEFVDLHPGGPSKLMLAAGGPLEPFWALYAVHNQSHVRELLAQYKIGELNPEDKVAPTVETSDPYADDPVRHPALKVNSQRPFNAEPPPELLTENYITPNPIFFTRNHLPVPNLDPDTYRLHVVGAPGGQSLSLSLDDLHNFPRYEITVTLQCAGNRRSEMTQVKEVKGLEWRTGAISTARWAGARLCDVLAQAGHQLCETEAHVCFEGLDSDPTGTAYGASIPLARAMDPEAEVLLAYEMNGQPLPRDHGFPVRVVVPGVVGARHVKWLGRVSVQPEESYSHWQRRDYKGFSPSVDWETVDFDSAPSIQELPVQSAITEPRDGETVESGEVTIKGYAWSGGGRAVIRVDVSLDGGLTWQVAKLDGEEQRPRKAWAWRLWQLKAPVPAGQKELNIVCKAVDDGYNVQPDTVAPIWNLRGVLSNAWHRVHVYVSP
UniProt O60506: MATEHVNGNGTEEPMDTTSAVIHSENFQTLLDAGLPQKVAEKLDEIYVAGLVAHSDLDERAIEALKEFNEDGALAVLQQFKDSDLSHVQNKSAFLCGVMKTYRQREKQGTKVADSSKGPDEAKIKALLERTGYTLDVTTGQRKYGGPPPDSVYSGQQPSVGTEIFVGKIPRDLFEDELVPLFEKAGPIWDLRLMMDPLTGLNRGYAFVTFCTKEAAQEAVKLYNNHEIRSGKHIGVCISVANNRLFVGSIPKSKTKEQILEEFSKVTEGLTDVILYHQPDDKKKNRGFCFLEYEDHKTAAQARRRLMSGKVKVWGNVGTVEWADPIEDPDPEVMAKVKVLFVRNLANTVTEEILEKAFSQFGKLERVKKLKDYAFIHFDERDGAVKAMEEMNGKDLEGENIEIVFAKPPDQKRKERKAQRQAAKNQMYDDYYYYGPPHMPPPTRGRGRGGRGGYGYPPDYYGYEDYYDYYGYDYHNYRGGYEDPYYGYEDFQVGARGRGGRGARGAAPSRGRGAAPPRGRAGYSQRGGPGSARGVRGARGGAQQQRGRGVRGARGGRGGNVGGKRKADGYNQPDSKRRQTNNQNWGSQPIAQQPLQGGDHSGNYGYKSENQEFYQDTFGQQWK
UniProt O00186: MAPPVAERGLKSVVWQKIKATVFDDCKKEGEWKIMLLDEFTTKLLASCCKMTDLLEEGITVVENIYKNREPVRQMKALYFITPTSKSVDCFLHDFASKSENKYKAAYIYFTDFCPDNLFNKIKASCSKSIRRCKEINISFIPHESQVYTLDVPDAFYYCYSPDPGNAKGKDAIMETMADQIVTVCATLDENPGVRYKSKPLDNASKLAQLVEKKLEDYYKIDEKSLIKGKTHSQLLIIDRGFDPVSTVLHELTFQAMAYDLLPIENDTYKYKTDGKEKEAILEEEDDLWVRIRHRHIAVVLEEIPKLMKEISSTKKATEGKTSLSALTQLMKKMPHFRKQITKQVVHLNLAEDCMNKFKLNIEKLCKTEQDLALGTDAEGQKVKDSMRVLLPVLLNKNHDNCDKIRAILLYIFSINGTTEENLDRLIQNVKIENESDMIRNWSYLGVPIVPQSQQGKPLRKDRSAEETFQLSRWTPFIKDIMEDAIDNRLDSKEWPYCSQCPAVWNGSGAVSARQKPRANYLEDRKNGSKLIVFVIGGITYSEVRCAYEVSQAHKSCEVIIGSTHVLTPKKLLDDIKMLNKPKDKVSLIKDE
UniProt P26639: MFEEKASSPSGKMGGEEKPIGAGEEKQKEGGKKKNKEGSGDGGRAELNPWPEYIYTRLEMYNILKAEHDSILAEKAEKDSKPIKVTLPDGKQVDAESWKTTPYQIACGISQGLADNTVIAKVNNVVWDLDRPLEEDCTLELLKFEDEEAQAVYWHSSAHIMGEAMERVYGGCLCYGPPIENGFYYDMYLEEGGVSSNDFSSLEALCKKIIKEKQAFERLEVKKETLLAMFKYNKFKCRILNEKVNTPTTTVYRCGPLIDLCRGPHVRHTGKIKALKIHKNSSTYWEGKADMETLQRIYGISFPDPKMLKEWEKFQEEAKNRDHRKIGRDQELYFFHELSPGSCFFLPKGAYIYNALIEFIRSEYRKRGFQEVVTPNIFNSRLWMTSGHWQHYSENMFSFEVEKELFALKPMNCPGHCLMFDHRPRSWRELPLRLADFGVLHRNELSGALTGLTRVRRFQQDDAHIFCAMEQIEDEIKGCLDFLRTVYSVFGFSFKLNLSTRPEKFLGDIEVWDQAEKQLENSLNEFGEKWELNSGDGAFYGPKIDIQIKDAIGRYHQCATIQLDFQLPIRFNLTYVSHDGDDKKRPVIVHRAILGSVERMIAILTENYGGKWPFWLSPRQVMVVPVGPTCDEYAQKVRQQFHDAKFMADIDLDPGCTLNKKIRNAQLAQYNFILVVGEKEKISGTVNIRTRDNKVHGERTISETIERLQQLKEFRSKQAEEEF
UniProt Q13033: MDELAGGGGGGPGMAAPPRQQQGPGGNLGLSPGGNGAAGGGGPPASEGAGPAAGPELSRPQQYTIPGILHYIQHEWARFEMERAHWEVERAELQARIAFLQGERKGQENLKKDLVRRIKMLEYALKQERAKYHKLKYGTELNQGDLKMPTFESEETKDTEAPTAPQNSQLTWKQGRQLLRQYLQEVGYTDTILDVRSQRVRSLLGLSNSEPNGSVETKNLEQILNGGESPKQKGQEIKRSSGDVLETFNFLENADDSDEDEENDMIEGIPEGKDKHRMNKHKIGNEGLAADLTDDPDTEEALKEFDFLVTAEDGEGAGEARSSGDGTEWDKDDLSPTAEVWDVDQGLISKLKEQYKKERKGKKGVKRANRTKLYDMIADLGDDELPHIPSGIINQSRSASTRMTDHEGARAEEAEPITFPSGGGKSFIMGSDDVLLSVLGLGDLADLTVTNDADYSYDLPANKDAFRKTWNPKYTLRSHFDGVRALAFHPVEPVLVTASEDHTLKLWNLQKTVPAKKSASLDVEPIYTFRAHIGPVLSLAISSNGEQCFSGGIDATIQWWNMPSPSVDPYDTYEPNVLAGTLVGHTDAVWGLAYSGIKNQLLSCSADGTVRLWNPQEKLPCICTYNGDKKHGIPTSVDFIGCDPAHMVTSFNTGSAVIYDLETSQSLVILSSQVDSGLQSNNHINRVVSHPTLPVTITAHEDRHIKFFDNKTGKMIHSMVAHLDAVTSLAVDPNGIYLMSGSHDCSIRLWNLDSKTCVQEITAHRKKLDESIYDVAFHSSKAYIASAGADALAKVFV
UniProt Q86VP1, whole entry, looked up: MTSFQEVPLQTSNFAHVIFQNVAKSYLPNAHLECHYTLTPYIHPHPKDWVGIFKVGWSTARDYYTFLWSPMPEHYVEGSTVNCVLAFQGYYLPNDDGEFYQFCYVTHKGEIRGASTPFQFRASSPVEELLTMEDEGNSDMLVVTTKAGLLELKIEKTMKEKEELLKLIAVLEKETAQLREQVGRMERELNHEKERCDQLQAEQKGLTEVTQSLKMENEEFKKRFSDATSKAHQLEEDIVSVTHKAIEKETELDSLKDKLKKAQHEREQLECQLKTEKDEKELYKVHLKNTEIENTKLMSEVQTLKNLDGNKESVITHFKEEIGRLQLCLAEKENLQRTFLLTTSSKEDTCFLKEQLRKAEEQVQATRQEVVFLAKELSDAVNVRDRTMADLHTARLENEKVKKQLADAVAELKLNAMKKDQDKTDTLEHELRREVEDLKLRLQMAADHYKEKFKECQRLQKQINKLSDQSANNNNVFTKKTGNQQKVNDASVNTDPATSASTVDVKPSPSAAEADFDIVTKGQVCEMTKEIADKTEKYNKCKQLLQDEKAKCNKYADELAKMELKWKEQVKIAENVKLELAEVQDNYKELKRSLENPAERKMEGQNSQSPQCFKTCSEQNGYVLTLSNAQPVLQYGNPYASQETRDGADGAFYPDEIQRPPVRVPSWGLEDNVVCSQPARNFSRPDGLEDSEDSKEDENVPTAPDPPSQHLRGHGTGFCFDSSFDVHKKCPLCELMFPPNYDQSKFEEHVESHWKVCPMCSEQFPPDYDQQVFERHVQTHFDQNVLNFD
UniProt P55854, whole entry, looked up: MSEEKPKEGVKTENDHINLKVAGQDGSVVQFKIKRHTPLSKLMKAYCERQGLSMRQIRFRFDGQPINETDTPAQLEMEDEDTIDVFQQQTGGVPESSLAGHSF

Key:
Test in all cases: log2 fold change, soluble protein after heating vs DMSO (PISA); higher = thermal stabilisation; K562 cells, 10 uM, 30 min; active = over 0.2 and 3.5 SD of the protein, either way, in both replicates (recomputed)
[1] = compound: C1=CC=C(C=C1)[C@H](COC2=CC3=C(C=C2)NC(=O)N3)NC(=O)C4=CC=CN(C4=O)CC5=CC(=C(C=C5)F)F
How it was run: (§1)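 For each measurement, 10 μM compound was applied for 30 min to K562 cells at 2×10^6 cells/mL. Aliquots were heated for 3 min across 48°C-58°C, pooled, and extracted in PBS with 0.5% NP-40 at 4°C; the supernatant after 21,000xg for 90 min was soluble protein. This was quantified by TMTpro 16plex LC-MS/MS with channel sums equalised, and thermal stability was reported relative to control samples from duplicates, on a log2 fold-change scale.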

[2] = compound: CC1=C(SC2=C1C(=N[C@H](C3=NN=C(N32)C)CC(=O)N)C4=CC=C(C=C4)Cl)C
How it was run: as §1

[3] = compound: CC1=C2C(=CC=C1)N=C(N(C2=O)C3=CC=CC=C3C)CN4C=NC5=C(N=CN=C54)N
How it was run: as §1

[4] = compound: Cc1sc2c(c1C)C(c1ccc(Cl)cc1)=N[C@@H](CC(=O)OC(C)(C)C)c1nnc(C)n1-2
How it was run: as §1

[5] = compound: c1ccc([C@@H]2C[C@H]2NC2CCNCC2)cc1
How it was run: as §1

Measured: log2 fold change

SYMPK (UniProt Q92797)
inactive: [1] -0.127 | [2] 0.034 | [3] 0.101 | [4] -0.006 | [5] 0.02

TALDO1 (UniProt P37837)
inactive: [1] -0.067 | [2] 0.027 | [3] 0.011 | [4] -0.006 | [5] -0.063

SURF1 (UniProt Q15526)
inactive: [1] -0.015 | [2] -0.018 | [3] 0.15 | [4] -0.101 | [5] 0.063

SUPT16H (UniProt Q9Y5B9)
inactive: [1] -0.238 | [2] 0.023 | [3] 0.279 | [4] -0.106 | [5] -0.006

SUOX (UniProt P51687)
inactive: [1] 0.01 | [2] 0 | [3] 0.096 | [4] -0.011 | [5] -0.021

STRN4 isoform 3 (UniProt Q9NRL3)
inactive: [1] -0.046 | [2] 0.028 | [3] 0.065 | [4] -0.028 | [5] 0.004

SYNCRIP (UniProt O60506)
inactive: [1] 0.055 | [2] -0.15 | [3] -0.089 | [4] 0.152 | [5] 0.017

TBC1D10B (UniProt Q4KMP7)
inactive: [1] -0.021 | [2] 0.062 | [3] 0.014 | [4] -0.026 | [5] 0.006

STXBP3 (UniProt O00186)
inactive: [1] -0.062 | [2] 0.059 | [3] 0.046 | [4] 0.107 | [5] -0.064

TARS1 (UniProt P26639)
inactive: [1] -0.043 | [2] 0.034 | [3] 0.017 | [4] 0.012 | [5] -0.015

STRN3 (UniProt Q13033)
inactive: [1] 0.016 | [2] 0.006 | [3] 0.013 | [4] 0.001 | [5] 0.002

SYNE1 (UniProt Q8NF91)
inactive: [1] -0.009 | [2] 0.24 | [3] 0.223 | [4] -0.018 | [5] -0.052

SUCLG1 (UniProt P53597)
inactive: [1] 0.004 | [2] 0.073 | [3] 0.042 | [4] -0.021 | [5] -0.041

SUPT6H (UniProt Q7KZ85)
inactive: [1] -0.181 | [2] 0.115 | [3] 0.234 | [4] 0.053 | [5] -0.187

TAB1 (UniProt Q15750)
inactive: [1] -0.089 | [2] 0.057 | [3] 0.121 | [4] 0.061 | [5] -0.04

TAX1BP1 (UniProt Q86VP1)
inactive: [1] -0.008 | [2] 0.09 | [3] 0.042 | [4] 0.029 | [5] -0.007

STOML1 (UniProt Q9UBI4)
inactive: [3] 0.21 | [4] 0.004

SUMO3 isoform 2 (UniProt P55854)
inactive: [1] 0.042 | [2] -0.057 | [3] -0.114 | [4] 0.033 | [5] 0.116

SWI5 (UniProt Q1ZZU3)
inactive: [1] 0.076 | [2] 0.103 | [3] 0.167 | [5] -0.062

STON2 isoform 3 (UniProt Q8WXE9)
inactive: [4] 0.113

SUGT1 isoform 2 (UniProt Q9Y2Z0)
inactive: [1] 0.011 | [3] 0.042 | [4] 0.037

2 entries drawn at random from the list so far, as already listed:
SWI5 (UniProt Q1ZZU3)
inactive: [1] 0.076 | [2] 0.103 | [3] 0.167 | [5] -0.062

SUGT1 isoform 2 (UniProt Q9Y2Z0)
inactive: [1] 0.011 | [3] 0.042 | [4] 0.037

Carrying on.

SUN1 isoform 9 (UniProt O94901)
inactive: [2] -0.114 | [3] 0.013 | [4] 0.109 | [5] 0.018

TACC1 isoform 2 (UniProt O75410)
inactive: [1] -0.029 | [2] 0.039 | [3] 0.087 | [4] 0.002 | [5] 0.017

SUPT5H isoform 2 (UniProt O00267)
inactive: [3] -0.015
